Results on 1 sequence are retold here after patent US20080008651A1, “Screening Methods and Transgenic Animals for the Treatment of Beta-Globin Related Disease and Conditions” (THE REGENTS OF THE UNIVERSITY OF MICHIGAN, published 2008).

Common to all, as to assay: EMSA
Background: In EMSA bound probe runs differently from free probe, usually more slowly.

For data set [1], the system named is TR2 coexpressed with dnTR4 dnTR4 chain: three Lys/Arg to Glu in DNA binding domain (Mus musculus). Conditions: TR2 binding abolished by coexpressed dnTR4; protein in a lysate after overexpression; protein details: coexpressed in 293T, nuclear extract; label: 32P (probe).
Data set [2] deals with TR2 coexpressed with dnTR2 dnTR2 chain: three Lys/Arg to Glu in DNA binding domain (Mus musculus). To be noted: TR2 binding not affected by dnTR2; protein in a lysate after overexpression; protein details: coexpressed in 293T, nuclear extract; label: 32P (probe).
Data set [3] addresses T1, TR4 (Mus musculus) (UniProt P49117).
T1 sequence (looked up, limits assumed): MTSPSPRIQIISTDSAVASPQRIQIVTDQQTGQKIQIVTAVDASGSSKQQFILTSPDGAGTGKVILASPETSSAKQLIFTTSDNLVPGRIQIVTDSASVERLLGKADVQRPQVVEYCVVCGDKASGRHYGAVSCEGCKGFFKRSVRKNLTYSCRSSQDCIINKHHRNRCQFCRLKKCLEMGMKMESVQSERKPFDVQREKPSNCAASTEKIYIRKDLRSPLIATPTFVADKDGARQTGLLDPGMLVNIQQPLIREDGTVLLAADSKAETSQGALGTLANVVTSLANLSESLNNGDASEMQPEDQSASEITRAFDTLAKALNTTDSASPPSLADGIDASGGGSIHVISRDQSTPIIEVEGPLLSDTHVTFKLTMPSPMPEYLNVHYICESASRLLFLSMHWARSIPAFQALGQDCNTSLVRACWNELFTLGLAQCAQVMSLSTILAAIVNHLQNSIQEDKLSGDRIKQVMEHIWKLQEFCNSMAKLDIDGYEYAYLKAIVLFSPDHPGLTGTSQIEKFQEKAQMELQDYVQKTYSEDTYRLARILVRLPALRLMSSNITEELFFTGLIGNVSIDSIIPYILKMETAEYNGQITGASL
Conditions: robust complex; protein in a lysate after overexpression; label: 32P (probe).

Data set [4] addresses T2, TR2 (Mus musculus) (UniProt Q505F1).
T2 sequence (looked up, limits assumed): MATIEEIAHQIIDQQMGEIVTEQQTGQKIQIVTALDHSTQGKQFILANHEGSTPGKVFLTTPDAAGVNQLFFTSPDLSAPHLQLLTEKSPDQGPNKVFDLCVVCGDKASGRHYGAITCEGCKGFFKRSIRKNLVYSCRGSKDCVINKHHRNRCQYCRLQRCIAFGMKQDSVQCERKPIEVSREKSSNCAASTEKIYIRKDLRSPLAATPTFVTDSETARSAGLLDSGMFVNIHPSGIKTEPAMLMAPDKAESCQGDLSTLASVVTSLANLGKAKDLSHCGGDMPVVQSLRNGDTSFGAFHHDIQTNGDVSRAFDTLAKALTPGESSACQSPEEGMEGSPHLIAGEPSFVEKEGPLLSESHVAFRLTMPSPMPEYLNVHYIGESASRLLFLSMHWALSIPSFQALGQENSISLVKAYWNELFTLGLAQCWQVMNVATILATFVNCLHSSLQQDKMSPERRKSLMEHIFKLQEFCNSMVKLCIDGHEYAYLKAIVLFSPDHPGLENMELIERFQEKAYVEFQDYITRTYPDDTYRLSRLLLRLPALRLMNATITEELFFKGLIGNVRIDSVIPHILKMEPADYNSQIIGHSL
To be noted: weak signal; protein in a lysate after overexpression; label: 32P (probe).

Data set [5] has as its system TR2/TR4 heterodimer (Mus musculus). To be noted: most intense signal; heterodimer > TR4 homodimer >> TR2 homodimer; protein in a lysate after overexpression; label: 32P (probe).

Results from cells or extracts need not show a direct contact. For some assays here: A weaker result is weaker than the reference pair of the same experiment. For some assays here: Protein sequences can lack the tags named with them. For some assays here: Construct, isoform or probe ends are uncertain for at least one entry. For some assays here: No signal at the amounts used counts as a negative.

As for “CCCTGAGGACACAGGTCAGCCTTG (double strand) [epsilon distal DR]”, the binding result in data set [1] was “no binding”; in data set [2] it was “binds”; in data set [3], “binds”; in data set [4], “binds more weakly”; in data set [5] it was “binds”.
